Measured values as given in PubChem BioAssay AID504842 (National Center for Advancing Translational Sciences (NCATS), 2011).
Out of some 330,000 compounds screened, about 100 (0.03%) were called active. The inconclusive results got no clear call from the source; some entries with a clear call stand among them for comparison. The call rests on the fitted dose curve; in most records, active means well fitted inhibition curve with a large enough effect; inconclusive means small, poorly fitted or top-dose-only effect; inactive means flat fitted curve, though single readings scatter. A potency beside an inconclusive call is a rough fit, not a confirmed value.
Further: nearly all actives have a fitted effect of over 80% in size.
On the % scale 0 is the no-effect control and ±100 the full control effect; potency means the concentration at half of the fitted maximal effect.
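Wherever potency is given: enzyme at 25 nM with ATP substrate at 10 µM during the reaction.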

What follows are compounds tested on Chaperonin Mm-Cpn (Methanococcus maripaludis) (assay: Inhibitors of TCP-1 ring complex (TRiC) of Methanococcus maripaludis (MmCpn): qHTS). Details: purified Mm-Cpn ATPase, ADP Transcreener TR-FRET; activity, negative = inhibition: at the top concentration.
Summary of the method: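 ATP (10 uM final) was added to archaeal chaperonin (25 nM final) after 10 min exposure to test compound at 37°C; after 30 min further incubation, ADP was detected by competitive TR-FRET.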
In the case of `CN(C)c1ccc(-c2c(-c3ccc4c(c3)OCO4)noc2-c2ccsc2)cn1`, the Potency is reported as inconclusive: 22.4 µM [inhibitor, single point]. For `CCN1CCc2c(sc(NC(=S)NC(=O)c3ccc(Cl)cc3)c2C(N)=O)C1`, the Potency was inconclusive: 50.1 µM [inhibitor, single point]. `C[C@H](CO)N1C[C@H](C)[C@@H](CN(C)C(=O)NC2CCCCC2)Oc2c(NS(=O)(=O)c3ccc(F)cc3)cccc2C1=O` was tested, and the “activity, negative = inhibition” value was inactive: 1.95%. `CCC(C(=O)NCCC1=CCCCC1)n1nc(C)c2c(C)n(-c3ccccc3)nc2c1=O` (configuration not stated) was tested, and the Potency was inconclusive: 79.4 µM [inhibitor, single point]. In the case of `O=C(NNC(=O)C1[C@H]2CCCC[C@@H]12)Nc1cccc2ccccc12` (some centres not stated), the Potency is reported as inconclusive: 17.8 µM [inhibitor, single point]. With `Cc1cccc2c1N(CCOc1ccccc1)C(=O)C2=O` the Potency was inconclusive: 282 µM [inhibitor, partial curve, poor fit]. With `Cc1cccc2cc3c(nc12)SC(=NCC1CCCO1)N(Cc1ccco1)C3` (configuration not stated) the Potency was inconclusive: 891 µM [inhibitor, partial curve, poor fit]. With `CC(=O)Nc1ccc2[nH]c3ccccc3c2c1` the “activity, negative = inhibition” value was inactive: -0.583%. In the case of `Cc1cc(C(=O)COC(=O)Cc2ccc(Br)cc2)c(C)n1C`, the Potency is reported as inconclusive: 89.1 µM [inhibitor, single point]. `N#Cc1ccc(-c2cccnc2)nc1SCc1ccc(Cl)c(Cl)c1` was tested, and the Potency was inconclusive: 316 µM [inhibitor, partial curve, poor fit]. `Cc1cccnc1NC(=S)NC(=O)c1cccs1` was tested, and the “activity, negative = inhibition” value was inactive: 0.201%. In the case of `CCc1ccccc1NC(=O)/C(=C/c1ccco1)c1ccccc1`, the “activity, negative = inhibition” value is reported as inactive: 0.441%. `COc1ccc(-c2[nH]ncc2-c2cnc(C)s2)c(O)c1` was tested, and the Potency was inconclusive: 89.1 µM [inhibitor, single point]. In the case of `CC(C)(C)C(=O)Nc1nnc(Cc2ccccc2)s1`, the Potency is reported as inconclusive: 63.1 µM [inhibitor, single point]. For `COc1ccc(C(CNC(=O)c2cccc(S(=O)(=O)Nc3ccccc3Cl)c2)N2CCOCC2)cc1` (configuration not stated), the Potency was inconclusive: 178 µM [inhibitor, partial curve, poor fit]. With `O=C(CSc1nccn1-c1ccccc1)N1CCc2ccccc21` the Potency was inconclusive: 10 µM [inhibitor, single point]. For `CCn1cc(/C=C(\NC(=O)c2ccc(OC)cc2)C(=O)N2CCOCC2)c2ccccc21`, the Potency was inconclusive: 100 µM [inhibitor, single point]. For `Cc1ccc2nc(C)c3c(c2c1)COC3`, the Potency was inconclusive: 100 µM [inhibitor, single point]. `CCn1cnc2c1c(=O)n(Cc1csc(-c3ccccc3)n1)c(=O)n2Cc1ccccc1` was tested, and the Potency was inconclusive: 794 µM [inhibitor, partial curve, poor fit]. `Cc1ccc(-c2cc(-c3ccc(C)o3)nc(N)c2C#N)cc1` was tested, and the “activity, negative = inhibition” value was inactive: -2.08%. For `O=C(Nc1ccc2oc(-c3ccncc3)nc2c1)c1ccc2c(c1)OCO2`, the Potency was inconclusive: 63.1 µM [inhibitor, single point]. `Cc1ccc2cc(C)c(SCC(=O)Nc3ccc(S(=O)(=O)N4CCCC4)cc3)nc2c1` was tested, and the Potency was inconclusive: 100 µM [inhibitor, single point]. `CCCCN(CC)CCCNC(=O)c1cn(C)c2ccc(S(=O)(=O)N(C)C3CCCCC3)cc2c1=O` was tested, and the “activity, negative = inhibition” value was inactive: 1.08%. For `CCn1c(=S)[nH]c2scc(-c3cccs3)c2c1=O`, the Potency was inconclusive: 100 µM [inhibitor, partial curve, poor fit]. With `CCS(=O)(=O)c1ccc(-c2csc(-c3ccccc3)n2)c(Cl)c1Cl` the Potency was inconclusive: 89.1 µM [inhibitor, single point]. With `COc1cc(NC(=O)CCNS(=O)(=O)c2ccc3c(c2)CCC(=O)N3)cc(OC)c1` the Potency was inconclusive: 11.2 µM [inhibitor, single point]. With `Cc1cccc(NC(=O)CCN2CC(C)CC(C)C2)c1` (configuration not stated) the Potency was inconclusive: 15.8 µM [inhibitor, single point]. `Cc1ccc(S(=O)(=O)NC(CN2CCOCC2)=NCCNS(=O)(=O)c2ccccc2)cc1` was tested, and the “activity, negative = inhibition” value was inactive: -3.72%. `Cn1ccnc1SCc1ccc(Cl)cc1Cl` was tested, and the Potency was inconclusive: 15.8 µM [inhibitor, single point]. In the case of `Cc1ccc(Sc2ccc(CO)cc2[N+](=O)[O-])cc1`, the “activity, negative = inhibition” value is reported as inactive: 1.28%. `Cc1ccc(C(=O)OCC(=O)c2ccc(Cl)s2)s1` was tested, and the Potency was inconclusive: 89.1 µM [inhibitor, single point]. With `CCOC(=O)CS(=O)(=O)CC(=O)Nc1ccc([N+](=O)[O-])cc1OC` the Potency was inconclusive: 35.5 µM [inhibitor, single point]. `N#Cc1cc(N)ccc1Sc1ccccc1` was tested, and the “activity, negative = inhibition” value was inactive: -0.853%. With `CCN1/C(=C/c2ccc3cc(C)ccc3[n+]2C)Sc2ccc3sccc3c21` the Potency was inconclusive: 25.1 µM [inhibitor, partial curve, poor fit]. For `CCCN(CCC)c1nc(NC2CCN(C(=O)OCC)CC2)nc(OC)n1`, the “activity, negative = inhibition” value was inactive: 0.992%. In the case of `CCN(CC)CCNC(=O)C(C(=O)c1ccccc1)n1ccccc1=O` (configuration not stated), the Potency is reported as inconclusive: 100 µM [inhibitor, single point]. With `CCOC(=O)N1CCC(Nc2c(NCCCN(C)Cc3ccccc3)c(=O)c2=O)CC1` the Potency was inconclusive: 12.6 µM [inhibitor, single point]. In the case of `Cc1ccc(C(=O)N2CCCCC2)cc1S(=O)(=O)N1CCOCC1`, the Potency is reported as inconclusive: 14.1 µM [inhibitor, single point]. `CCOC(=O)CSc1nc(N)c(C#N)c(-c2ccc(OC)cc2)c1C#N` was tested, and the Potency was inconclusive: 158 µM [inhibitor, partial curve, poor fit]. In the case of `CCOC(=O)N1CCN(C(=O)Cn2nc(-c3ccc(Cl)cc3)ccc2=O)CC1`, the “activity, negative = inhibition” value is reported as inactive: -0.401%. For `S=C(NCc1ccc2c(c1)OCO2)Nc1ccc2nsnc2c1`, the Potency was inconclusive: 100 µM [inhibitor, partial curve, poor fit]. In the case of `CC(C)CSC1=NSC2=NC(=O)/C(=C\c3ccccc3)C(=N)N12`, the “activity, negative = inhibition” value is reported as inactive: -3.32%. With `Nc1ccc2oc(-c3cccs3)nc2c1` the Potency was inconclusive: 25.1 µM [inhibitor, single point]. `Cc1cc(C)c2nc(SCC(=O)NCC3CCCO3)c(C#N)cc2c1` (configuration not stated) was tested, and the Potency was inconclusive: 89.1 µM [inhibitor, single point]. For `O=C1CCC([N+](=O)[O-])C(c2ccc(Br)cc2)N1` (configuration not stated), the Potency was inconclusive: 89.1 µM [inhibitor, single point]. `COc1ccc(Nc2nc(-c3ccccc3O)nc3ccccc23)cc1` was tested, and the Potency was inconclusive: 251 µM [inhibitor, partial curve, poor fit]. `CCOC(=O)c1c(NC(=S)NC)sc2c1CC(C)(C)SC2` was tested, and the “activity, negative = inhibition” value was inactive: -6.53%. With `Cc1nn(-c2ccccc2)c2sc(C(=O)OCn3nnc4ccccc4c3=O)cc12` the “activity, negative = inhibition” value was inactive: 0.794%. In the case of `O=C(Nc1ccc2ccccc2c1)/C(=C/c1cccc(Br)c1)NC(=O)c1ccco1`, the Potency is reported as inconclusive: 224 µM [inhibitor, partial curve, poor fit]. For `C/C(=N\NC(=O)Cn1cc([N+](=O)[O-])cn1)c1ccc(O)cc1`, the Potency was inconclusive: 100 µM [inhibitor, single point]. In the case of `O=C(NCCc1cn2ccccc2n1)c1cc(COc2ccc3ncccc3c2)on1`, the “activity, negative = inhibition” value is reported as inactive: -1.9%. In the case of `Cn1c(CSc2ncn[nH]2)nc2ccccc21`, the Potency is reported as inconclusive: 22.4 µM [inhibitor, single point]. `NS(=O)(=O)c1ccc(CCNC(=O)C(=O)c2cn(CC(=O)N3CCOCC3)c3ccccc23)cc1` was tested, and the Potency was inconclusive: 89.1 µM [inhibitor, single point]. With `COc1cccc(/C=N/NC(=O)c2ccoc2C)c1O` the Potency was inconclusive: 100 µM [inhibitor, single point]. In the case of `O=C(OCc1nc2scc(-c3ccccc3)c2c(=O)[nH]1)c1ccco1`, the Potency is reported as inconclusive: 22.4 µM [inhibitor, single point]. With `COc1ccc(C2CC(c3ccccc3)=NN2C(=O)COC(=O)c2cccc(S(=O)(=O)N(C)C)c2)cc1` (configuration not stated) the Potency was inconclusive: 355 µM [inhibitor, partial curve, poor fit]. `CCOC(=O)C1=C(C)NC(C)=C(C(=O)OC)C1c1cccc(Cl)c1Cl` (configuration not stated) was tested, and the “activity, negative = inhibition” value was inactive: -0.58%. In the case of `COc1ccc(/C=N/c2oc(-c3ccccc3)cc2C#N)cc1`, the Potency is reported as inconclusive: 15.8 µM [inhibitor, single point]. For `COc1cc(CNC2CCCC2)cc(Cl)c1OCc1ccccc1F`, the Potency was inconclusive: 15.8 µM [inhibitor, partial curve, poor fit]. `O=C(NCc1ccc2c(c1)OCO2)c1nc(S(=O)(=O)Cc2ccccc2F)ncc1Cl` was tested, and the Potency was inconclusive: 100 µM [inhibitor, single point]. In the case of `O=C(COc1cccnc1[N+](=O)[O-])N1CCC(Cc2ccccc2)CC1`, the Potency is reported as inconclusive: 100 µM [inhibitor, single point]. With `COC(=O)[C@H]1C[C@@H]1[C@H](NC(=O)c1ccccc1)c1ccccc1` the Potency was inconclusive: 15.8 µM [inhibitor, single point]. `CC1=C/C(=N\NC(=S)Nc2cccnc2)CC(C)(C)C1` was tested, and the Potency was inconclusive: 22.4 µM [inhibitor, single point]. In the case of `COc1ccc2nc(N/C(N)=N/C(=S)Nc3cccc(C)c3)nc(C)c2c1`, the Potency is reported as inconclusive: 79.4 µM [inhibitor, single point]. In the case of `O=C(CNC(=O)c1ccccc1)OCCOc1cccc(Cl)c1`, the “activity, negative = inhibition” value is reported as inactive: 0.578%. In the case of `NNc1nc(-c2ccccc2)cs1`, the Potency is reported as inconclusive: 22.4 µM [inhibitor, single point]. For `O=C(NCc1ccccc1Cl)c1cc(=O)[nH]c2ccccc12`, the Potency was inconclusive: 79.4 µM [inhibitor, single point].
